The campaign covered roughly 340,000 compounds. About 170 (0.05%) were called active. The shares of active, inactive and inconclusive entries below differ from those in the screen. Calls come from the whole dose curve; as a rule, active = well fitted inhibition curve with a large enough effect in the signal ratio, with a control signal flat (not every such curve was filed as active); inconclusive = small, poorly fitted or top-dose-only effect, or effect the other way, or a change in a side signal; inactive = flat fitted curve, though single readings scatter; the % refers to the signal ratio. Potencies of inconclusive entries are doubtful fits and often do not repeat.
Experiment: qHTS Assay to Find Inhibitors of Chronic Active B-Cell Receptor Signaling;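 for activity change, negative = inhibition: plate controls were basal doxycycline-induced cells for no effect and cells given 10 µM MG132 for full effect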
Details: ABC-DLBCL IkBa-CBG/CBR reporter, luminescence ratio (green luciferase fused to IkBa over red control in TMD8 lymphoma cells), 4 h; activity change, negative = inhibition: at 46.1 µM (top of the series)
Summary of the method: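 Doxycycline induced both beetle luciferases in TMD8 lymphoma cells; IKK-driven degradation limits the IkappaBalpha-fused green signal, while red luminescence normalises for cell number and nonspecific effects. Compounds tested up to 46 uM, 4 hrs.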
Potency is the fitted concentration of half-maximal effect.

Structure (SMILES)	Potency	activity change, negative = inhibition
Cc1nc(N2CCc3ccccc3C2)[nH]c(=O)c1CCC(C)C	inconclusive: 6.51 µM [rising, partial curve, poor fit]	–
Cc1nnc2n(Cc3ccccc3)c(=O)c3c4c(sc3n12)CCCC4	–	inactive
Cc1nc2ccc(NC(=O)CS(=O)(=O)c3ccc(F)cc3)cc2s1	–	inconclusive: -6.19%
CC(=O)c1ccc(-c2ccccc2[C@H]2[C@H]3C=CC[C@@H](C)[C@@H]3C(=O)N2Cc2ccccc2)cc1	–	inconclusive: -7.95%
COc1ccccc1CC(=O)NCc1csc(-c2cccs2)n1	–	inconclusive: 10.1%
Cc1ccc(C(=O)Nc2ccccc2N2CCCCC2)cc1[N+](=O)[O-]	–	inactive
CSc1nnc2n(Cc3ccccc3)c(=O)c3c4c(sc3n12)COC(C(C)C)C4 (stereo not drawn)	–	inconclusive: 22.9%
O=S(=O)(Nc1cc2nc3ccccc3nc2n1Cc1ccccc1)c1ccc(Cl)cc1	–	inconclusive: -0.417%
CC(=O)c1ccc(NC(=O)CSc2nccn2CCc2ccccc2)cc1	–	inconclusive: 7.19%
O=S(=O)([N-]c1nc2ccccc2nc1-n1cc[n+](Cc2ccccc2)c1)c1ccccc1	inconclusive: 8.91 µM [rising, partial curve, poor fit]	–
CCC1CCCCN1C(=O)CSc1nc2ccsc2c(=O)n1Cc1ccccc1 (stereo not drawn)	inconclusive: 1.3 µM [rising, full curve, poor fit]	–
CN1CCN(C2=C(NS(=O)(=O)c3ccccc3)C(=O)c3ccccc3C2=O)CC1	–	inconclusive: -8.66%
Cc1cccc(C)c1OCc1cc(C(=O)NCc2cn(C)nc2C)no1	–	inactive
Nc1ncc(-c2ccccc2)c(-c2ccc(O)cc2O)n1	–	inconclusive: 5.26%
Cc1ccccc1N/C(SCc1ccc(Cl)cc1)=C(/C#N)C(N)=O	–	inconclusive: -15.4%
CCN(CC)c1nc(-c2ccc(C(=O)NN)cc2)nc(-c2ccc(C(=O)NN)cc2)n1	inconclusive: 12.6 µM [falling, partial curve]	–
COc1ccc(OCC(=O)N/N=C(\C)CC(=O)Nc2cccc([N+](=O)[O-])c2)cc1	inconclusive: 17.8 µM [falling, partial curve, poor fit]	–
CCCNc1nc(-c2cc(-c3ccc(Cl)cc3)on2)cc(C(C)C)n1	–	inconclusive: -0.828%
CN(C)C(=O)c1ccc2c(c1)n(C)c(=O)n2C	–	inconclusive: 16.2%
CCCOC(=O)CSC1=C(C#N)C(c2ccccc2OC)C(C#N)C(=O)N1 (stereo not drawn)	–	inconclusive: 21.6%
O=C(NC(=S)NC(=O)c1ccccc1F)c1ccccc1F	inconclusive: 18.4 µM [falling, partial curve]	–

Structure (SMILES)	Potency	activity change, negative = inhibition
CC(C)Oc1ccccc1C1CC(=O)Nc2cc3c(cc21)OCCO3 (stereo not drawn)	inconclusive: 12.6 µM [falling, partial curve]	–
CCOC(=O)c1ccc(-c2c(-c3cc(OC)c(OC)c(OC)c3)noc2C)cc1F	inconclusive: 0.631 µM [falling, full curve, poor fit]	–
COc1ccc(NC(C)C(=O)N/N=C/c2ccccc2OCc2ccc(Br)cc2)cc1 (stereo not drawn)	–	inactive
C/C(CCC1CC(C)OC1=O)=N/Nc1nc(-c2ccccc2)cs1 (stereo not drawn)	inconclusive: 8.2 µM [falling, partial curve]	–
Fc1ccccc1/C=N/n1cc(-c2ccccc2)[nH]c1=S	–	inactive
COc1ccc(Oc2nnnn2-c2ccccc2)cc1	–	inactive
COCCn1cnc2c1c(=O)n(CC#N)c(=O)n2Cc1ccccc1	–	inactive
CN(Cc1ccc(OC(F)F)cc1)Cc1nc2c(Br)cc(Br)cc2c(=O)[nH]1	–	inconclusive: -8.7%
Cc1cc(C)c(-n2nnnc2SCC(=O)c2cc3ccccc3o2)c(C)c1	–	inactive
O=[N+]([O-])c1ccc(-c2ccc(/C=N/n3cnnc3)o2)c(Br)c1	inconclusive: 22.4 µM [falling, single point]	–
CCc1ccc(C2CC(c3ccccc3)Nc3nc(N)nn32)cc1 (stereo not drawn)	–	inconclusive: -0.81%
Cc1csc(NC(=O)c2ccc3nc[nH]c3c2)n1	–	inconclusive: 7.06%
O=C(C[n+]1ccccc1)Nc1nc2ccccc2s1	inconclusive: 5.8 µM [falling, full curve]	–
O=c1oc2ccccc2c2c1ncn2-c1ccccc1	–	inconclusive: -20.2%
CSc1nnc(-c2ccccc2)c(=O)[nH]1	–	inconclusive: -13.9%
CC1(C)Oc2ccc(C(=O)Nc3ccccc3F)cc2N(CC(=O)N2CCOCC2)C1=O	–	inconclusive: -6.37%
CCOC(=O)N1CCN(C(=O)c2ccc3c(=O)n(CC4CCCO4)c(=S)[nH]c3c2)CC1 (stereo not drawn)	–	inconclusive: 2.98%
COc1ccc(OCC(O)Cn2cnc(-c3ccc(Br)cc3)c2)cc1 (stereo not drawn)	–	inconclusive: 3.88%
Cc1cccc(Sc2ccc([N+](=O)[O-])cc2[N+](=O)[O-])n1	–	inactive
COC(=O)c1ccc(-c2sc3nc(N4CCOCC4)c4c(c3c2N)CCCC4)o1	–	inactive
COc1ccc2nc3n(c(=O)c2c1)-c1cc(C)ccc1C(=O)NC3Cc1ccc(O)cc1 (stereo not drawn)	–	inconclusive: -6.45%

Rewritten with bars between the fields: part of the list above.
Structure (SMILES) | Potency | activity change, negative = inhibition
Cc1nc(N2CCc3ccccc3C2)[nH]c(=O)c1CCC(C)C | inconclusive: 6.51 µM [rising, partial curve, poor fit] | –
CSc1nnc2n(Cc3ccccc3)c(=O)c3c4c(sc3n12)COC(C(C)C)C4 (stereo not drawn) | – | inconclusive: 22.9%
O=S(=O)(Nc1cc2nc3ccccc3nc2n1Cc1ccccc1)c1ccc(Cl)cc1 | – | inconclusive: -0.417%
CC(=O)c1ccc(NC(=O)CSc2nccn2CCc2ccccc2)cc1 | – | inconclusive: 7.19%
CCC1CCCCN1C(=O)CSc1nc2ccsc2c(=O)n1Cc1ccccc1 (stereo not drawn) | inconclusive: 1.3 µM [rising, full curve, poor fit] | –
Nc1ncc(-c2ccccc2)c(-c2ccc(O)cc2O)n1 | – | inconclusive: 5.26%
Cc1ccccc1N/C(SCc1ccc(Cl)cc1)=C(/C#N)C(N)=O | – | inconclusive: -15.4%
CCN(CC)c1nc(-c2ccc(C(=O)NN)cc2)nc(-c2ccc(C(=O)NN)cc2)n1 | inconclusive: 12.6 µM [falling, partial curve] | –
CN(C)C(=O)c1ccc2c(c1)n(C)c(=O)n2C | – | inconclusive: 16.2%
CCCOC(=O)CSC1=C(C#N)C(c2ccccc2OC)C(C#N)C(=O)N1 (stereo not drawn) | – | inconclusive: 21.6%
O=C(NC(=S)NC(=O)c1ccccc1F)c1ccccc1F | inconclusive: 18.4 µM [falling, partial curve] | –
CC(C)Oc1ccccc1C1CC(=O)Nc2cc3c(cc21)OCCO3 (stereo not drawn) | inconclusive: 12.6 µM [falling, partial curve] | –
CCOC(=O)c1ccc(-c2c(-c3cc(OC)c(OC)c(OC)c3)noc2C)cc1F | inconclusive: 0.631 µM [falling, full curve, poor fit] | –
C/C(CCC1CC(C)OC1=O)=N/Nc1nc(-c2ccccc2)cs1 (stereo not drawn) | inconclusive: 8.2 µM [falling, partial curve] | –
COc1ccc(Oc2nnnn2-c2ccccc2)cc1 | – | inactive
COCCn1cnc2c1c(=O)n(CC#N)c(=O)n2Cc1ccccc1 | – | inactive
O=[N+]([O-])c1ccc(-c2ccc(/C=N/n3cnnc3)o2)c(Br)c1 | inconclusive: 22.4 µM [falling, single point] | –
O=C(C[n+]1ccccc1)Nc1nc2ccccc2s1 | inconclusive: 5.8 µM [falling, full curve] | –
O=c1oc2ccccc2c2c1ncn2-c1ccccc1 | – | inconclusive: -20.2%
CSc1nnc(-c2ccccc2)c(=O)[nH]1 | – | inconclusive: -13.9%
CCOC(=O)N1CCN(C(=O)c2ccc3c(=O)n(CC4CCCO4)c(=S)[nH]c3c2)CC1 (stereo not drawn) | – | inconclusive: 2.98%

Following part:

Structure (SMILES)	Potency	activity change, negative = inhibition
N#Cc1nc(-c2ccc(OCc3ccccc3)cc2)oc1N1CCOCC1	–	inconclusive: 5.19%
CC(C)CC(=O)Nc1cccc(C(=O)Nc2ccccc2C(=O)O)c1	inconclusive: 25.9 µM [falling, partial curve, poor fit]	–
O=C1ON=C(c2ccccc2)/C1=C\c1ccco1	–	inactive
CSc1ccccc1NC(=O)c1cc(-c2cccs2)on1	inconclusive: 11.2 µM [falling, partial curve]	–
CCOC(=O)CNC(=O)c1cnc(Nc2ccccc2OC)c2ccccc12	–	inactive
CC(C)(C)c1cc(NCc2ccccn2)n2ncc(-c3ccc(Cl)cc3)c2n1	–	inactive
O=C(COC(=O)c1ccc2ncsc2c1)Nc1cc([N+](=O)[O-])ccc1Cl	–	inconclusive: 4.85%
CCN(CC(=O)NCc1ccc(Cl)cc1)CC(=O)Nc1ccc(C(N)=O)cc1	–	inactive
O=C(N/N=C/c1ccc(-c2ccc(Cl)c(C(=O)O)c2)o1)c1cc2c(ccc3ccccc32)o1	–	inconclusive: 8.71%
CCC(C)(C)NC(=O)CN(C(=O)c1ccc(N2CCCC2)nc1)c1ccc(F)cc1	–	inconclusive: -0.199%
Cc1c(-c2ncn[nH]2)sc(C#N)c1-c1ccccc1	–	inconclusive: -1.31%
COc1ccc(C2(C)NC(=O)N(Cc3cc(Cl)cc4c3OCOC4)C2=O)cc1OC (stereo not drawn)	–	inconclusive: 18.4%
COc1ccc(NC(=O)CCN2CCN(S(=O)(=O)c3cc(Cl)ccc3OC)CC2)cc1	–	inconclusive: -0.31%
Cc1ccccc1Nc1nc(N)nc(COC(=O)c2ccc(S(=O)(=O)N(C)C)cc2)n1	–	inconclusive: -19.7%
O=C(NNC(=O)c1ccc(Cl)s1)c1csc(N2CCOCC2)n1	inconclusive: 18.4 µM [falling, single point]	–
O=C1/C(=C/c2ccc(O)cc2)COc2ccccc21	inconclusive: 7.08 µM [rising, partial curve, poor fit]	–
OCC1(Cc2ccc(F)cc2)CCCN(Cc2ccc(F)cc2Cl)C1 (stereo not drawn)	–	inactive
COc1cccc(NC(=O)Cn2nnc(C(=O)Nc3ccccc3)c2N)c1	–	inactive
O=C(Cn1cc(S(=O)(=O)Cc2ccccc2F)c2ccccc21)N1CCOCC1	–	inconclusive: -17.3%
CCOC(=O)C1(CCOc2ccccc2)CCN(Cc2cc(OC)ccc2OC)CC1	–	inactive
NC(=O)COc1ccc(NC(=O)OCc2ccccc2)cc1	–	inconclusive: -16.2%

Structure (SMILES)	Potency	activity change, negative = inhibition
COCc1nc(-c2cc(OC)c(OC)c(OC)c2)no1	–	inconclusive: -1.27%
CCOC(=O)C1=C(C)N(c2ccccc2)C(=O)/C1=C\c1ccc(O)c(OC)c1	inconclusive: 15.8 µM [falling, partial curve, poor fit]	–
COc1ccc(Nc2nc(-c3ccccc3)cs2)cc1	inconclusive: 16.4 µM [falling, partial curve]	–
O=[N+]([O-])/C(N=Nc1ccccc1)=N\Nc1ccccc1	–	inconclusive: 10.7%
O=C(c1ccc(-c2ccccc2)c(F)c1)C1CCCN(C(=O)c2cncs2)C1 (stereo not drawn)	–	inconclusive: 0.335%
Oc1ccc(Cc2ncc(C(F)(F)F)cc2Cl)cc1	–	inactive
Cc1ccc(-c2nc(CS(=O)CC(=O)N3CCN(c4ccc(F)cc4)CC3)c(C)o2)cc1 (stereo not drawn)	–	inactive
Cc1cc(C)n(S(=O)(=O)c2cc(C(=O)O)c(Cl)cc2Cl)n1	–	inconclusive: 15.4%
Cc1cc(C(=O)N(C)C)sc1-c1ccccc1	–	inconclusive: 4.25%
O=C(NC1CCCCC1)c1cc(-c2ccc(F)cc2)on1	–	inconclusive: 425%
COc1cc2[nH]c(C(=O)N3CCC(Cc4ccccc4)CC3)cc2c(OC)c1OC	inconclusive: 22.4 µM [falling, single point]	–
Cc1cc(Cl)ccc1OC(C)C(=O)NC(C)C1CCCO1 (stereo not drawn)	–	inconclusive: -19.2%
O=C(Cc1ccccc1[N+](=O)[O-])NCCCc1ccccc1	–	inconclusive: 8.26%
O=C(Nc1ccc(Cl)cn1)c1cccc(F)c1	inconclusive: 12.6 µM [falling, partial curve]	–
O=C(NNC(=O)c1ccccn1)c1ccc(OC(F)F)cc1	–	inactive
Cc1ccc(S(=O)(=O)N2CCCOC2CNC(=O)C(=O)NCCc2c[nH]c3ccccc23)cc1 (stereo not drawn)	–	inactive
CN1CCN(c2ccccc2NC(=O)c2sc3ccccc3c2Cl)CC1	–	inactive
S=C(Nc1cccc(Br)c1)c1ccccc1	–	inconclusive: -5.31%
Cc1ccccc1NC(=O)CSC(N)=O	–	inconclusive: -2.04%
COc1ccccc1-c1ccc(SCc2ccccc2)nn1	inconclusive: 22.4 µM [falling, partial curve]	–

From PubChem BioAssay AID493014 (National Center for Advancing Translational Sciences (NCATS), 2011)
